# Values quoted from earlier work, collected in patent US10011818B2, “Method for in vitro oocyte maturation” (CHINA AGRICULTURE UNIVERSITY, priority 2012, dated 2018).
# At least one structure is not confirmed: it was looked up by name or label, or the drawing left a doubt.
# Tested on: oocyte nuclear maturation
# Details: literature, chemical meiotic inhibitors; cited from earlier work
structure (smiles),measurement,value
C=C[C@@]1(C)CC(=O)[C@]2(O)[C@@]3(C)[C@@H](O)CCC(C)(C)[C@@H]3[C@H](O)[C@H](OC(C)=O)[C@@]2(C)O1 [forskolin],inhibitory effect on nuclear maturation,evident inhibitory effect
